PubChem BioAssay AID1259425, University of Nebraska Medical Center, 2018
Here is a random part of about 14,000 reagents. Not all columns of the deposit are shown. Reagent sequences are not shown. Not given: the time to read-out.

- Test: 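Find knockdowns that reproduce the gene expression pattern seen when KSR1 is lost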 (primary screen)
- Cells: HCT116 human colon cancer cells
- Reagents: siRNA pool against human genes, 50 nM siRNA
- Measurement: 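mRNA of six signature genes measured together by branched-DNA assay after 50 nM siRNA pool, blank removed, divided by geometric mean of two housekeeping genes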
- Scale: BNIP3L mRNA: higher = more BNIP3L transcript after knockdown; NDRG1 mRNA: higher = more NDRG1 transcript after knockdown

gene | BNIP3L mRNA, set 1 | NDRG1 mRNA, set 1
PALM (paralemmin) | 0.177 | 0.176
PRH2 (proline rich protein HaeIII subfamily 2) | 0.176 | 0.148
DSN1 (DSN1 component of MIS12 kinetochore complex) | 0.0938 | 0.152
TET1 (tet methylcytosine dioxygenase 1) | 0.12 | 0.347
KLHL3 (kelch like family member 3) | 0.193 | 0.755
SNAPC2 (small nuclear RNA activating complex polypeptide 2) | 0.112 | 0.396

A few values from above:
For “NDRG1 mRNA, set 1”, KLHL3 (kelch like family member 3) is entered as 0.755
Result for TET1 (tet methylcytosine dioxygenase 1) in “BNIP3L mRNA, set 1”: 0.12
Under “NDRG1 mRNA, set 1”, DSN1 (DSN1 component of MIS12 kinetochore complex) reads 0.152

The results go on.
gene | BNIP3L mRNA, set 1 | NDRG1 mRNA, set 1
PALD1 (phosphatase domain containing paladin 1) | 0.07 | 0.36
MED21 (mediator complex subunit 21) | 0.145 | 0.208
DDAH1 (dimethylarginine dimethylaminohydrolase 1) | 0.0395 | 0.119
GSTT1 (glutathione S-transferase theta 1) | 0.129 | 0.577
TUBB7P (tubulin beta 7 pseudogene) | 0.11 | 0.296
USP36 (ubiquitin specific peptidase 36) | 0.0855 | 0.13
NOP10 (NOP10 ribonucleoprotein) | 0.233 | 0.255
LSM6 | 0.106 | 0.419
OXT (oxytocin/neurophysin I prepropeptide) | 0.0727 | 0.16
USP15 (ubiquitin specific peptidase 15) | 0.0968 | 0.161
RHD (Rh blood group D antigen) | 0.104 | 0.0594
MAPKBP1 (mitogen-activated protein kinase binding protein 1) | 0.0638 | 0.109
ZSWIM5 (zinc finger SWIM-type containing 5) | 0.0877 | 0.0886
ACSL3 (acyl-CoA synthetase long chain family member 3) | 0.0709 | 0.104
